No constants are given. Whether binding was seen depends on the method and setting. Some entries that bind do so weakly or less than the wild type.
Target: T1, Trop-2 on BxPC-3 cells (human, UniProt P09758 27-323)
T1 construct: whole, on cells; also called Trop-2-positive BxPC-3 tumor cells
T1 sequence (looked up): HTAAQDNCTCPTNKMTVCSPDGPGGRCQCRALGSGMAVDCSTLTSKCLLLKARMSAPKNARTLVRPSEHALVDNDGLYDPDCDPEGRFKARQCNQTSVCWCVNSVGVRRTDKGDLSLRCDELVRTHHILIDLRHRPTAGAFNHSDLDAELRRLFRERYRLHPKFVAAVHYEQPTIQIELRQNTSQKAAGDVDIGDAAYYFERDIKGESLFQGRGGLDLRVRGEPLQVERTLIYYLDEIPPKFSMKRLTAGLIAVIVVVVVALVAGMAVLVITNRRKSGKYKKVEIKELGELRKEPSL
Test: flow cytometry on BxPC-3 cells

B1: Antibody h23-12 (antibody, human IgG1, kappa, V domains shown)
VH: QVQLVQSGAEVKKPGASVKVSCKASGYTFTSYWMHWVRQAPGQGLEWMGEITPSDNYGSYNQKFKGRVTITRDTSTSTAYMELSSLRSEDTAVYYCARGHGNYVSFDYWGQGTLVTVSS
VL: DIQMTQSPSSLSASVGDRVTITCRASQDISNYLNWYQQKPGKAPKLLIYYTSRLESGVPSRFSGSGSGTDFTLTISSLQPEDFATYFCQQGYTLPPYTFGQGTKLEIKR
notes: Monoclonal antibody; also called the mAb in Trop2-ADC-14; anti-Trop-2 antibody h23-12
binding: binds

Source: US20250059201A1, “CAMPTOTHECIN COMPOUND AND CONJUGATE THEREOF” (priority 2021, published 2025)
